# Assay results: the supplement of paper PMC10849652
# The chains behind the UniProt entries cited, without tags or fusion partners. Where a name states a change or a piece, a line headed by the entry shows the natural chain unless it says otherwise.
# UniProt Q8IYU2: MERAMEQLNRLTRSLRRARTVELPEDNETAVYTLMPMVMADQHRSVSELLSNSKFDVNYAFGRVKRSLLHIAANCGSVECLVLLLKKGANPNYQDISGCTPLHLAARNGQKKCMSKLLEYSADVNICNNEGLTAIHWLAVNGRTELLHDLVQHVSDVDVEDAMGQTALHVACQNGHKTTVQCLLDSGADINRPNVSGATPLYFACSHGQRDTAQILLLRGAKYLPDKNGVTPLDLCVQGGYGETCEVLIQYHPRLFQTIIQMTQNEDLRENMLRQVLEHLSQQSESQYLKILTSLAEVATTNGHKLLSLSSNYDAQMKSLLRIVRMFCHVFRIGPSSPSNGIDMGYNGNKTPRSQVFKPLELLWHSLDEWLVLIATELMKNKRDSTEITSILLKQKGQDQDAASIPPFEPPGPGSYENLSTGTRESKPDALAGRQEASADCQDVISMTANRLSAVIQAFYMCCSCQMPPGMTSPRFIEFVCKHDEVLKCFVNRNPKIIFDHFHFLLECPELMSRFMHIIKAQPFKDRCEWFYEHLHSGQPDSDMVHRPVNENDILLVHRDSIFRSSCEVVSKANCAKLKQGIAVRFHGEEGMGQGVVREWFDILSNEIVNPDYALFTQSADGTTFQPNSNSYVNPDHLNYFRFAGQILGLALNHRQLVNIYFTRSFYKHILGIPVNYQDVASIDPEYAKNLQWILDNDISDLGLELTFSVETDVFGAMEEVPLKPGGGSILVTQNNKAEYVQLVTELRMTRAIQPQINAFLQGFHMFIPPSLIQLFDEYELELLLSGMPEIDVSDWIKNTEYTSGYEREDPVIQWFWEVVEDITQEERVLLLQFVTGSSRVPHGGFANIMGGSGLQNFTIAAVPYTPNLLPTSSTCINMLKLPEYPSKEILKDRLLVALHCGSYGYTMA
# UniProt O15488: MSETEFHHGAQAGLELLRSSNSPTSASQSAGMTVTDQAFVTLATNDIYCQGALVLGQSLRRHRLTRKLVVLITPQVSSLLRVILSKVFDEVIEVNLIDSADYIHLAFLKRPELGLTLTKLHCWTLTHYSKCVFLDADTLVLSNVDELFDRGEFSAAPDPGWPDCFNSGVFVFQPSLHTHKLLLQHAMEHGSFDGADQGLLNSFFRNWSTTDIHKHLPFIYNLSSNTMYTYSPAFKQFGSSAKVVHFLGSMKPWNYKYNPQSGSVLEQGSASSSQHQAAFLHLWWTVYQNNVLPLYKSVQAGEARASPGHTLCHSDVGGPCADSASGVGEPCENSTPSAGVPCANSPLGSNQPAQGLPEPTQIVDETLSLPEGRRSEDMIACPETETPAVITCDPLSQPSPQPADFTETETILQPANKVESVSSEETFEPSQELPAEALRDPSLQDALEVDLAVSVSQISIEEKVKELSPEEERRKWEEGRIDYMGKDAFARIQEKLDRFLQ
# UniProt Q8WW33: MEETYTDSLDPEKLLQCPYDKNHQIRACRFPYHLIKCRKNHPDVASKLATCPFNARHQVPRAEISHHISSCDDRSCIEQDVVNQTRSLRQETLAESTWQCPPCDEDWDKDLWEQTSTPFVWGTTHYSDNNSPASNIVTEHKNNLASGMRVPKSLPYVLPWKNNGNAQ
# UniProt P13984, whole entry, looked up: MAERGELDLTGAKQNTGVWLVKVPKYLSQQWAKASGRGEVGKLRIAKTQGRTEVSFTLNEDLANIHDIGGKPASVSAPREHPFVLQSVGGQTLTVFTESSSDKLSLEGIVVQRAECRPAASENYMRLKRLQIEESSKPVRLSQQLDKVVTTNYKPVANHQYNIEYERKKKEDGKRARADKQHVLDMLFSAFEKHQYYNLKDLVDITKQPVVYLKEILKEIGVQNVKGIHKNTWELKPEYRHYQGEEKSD
# UniProt P36969, whole entry, looked up: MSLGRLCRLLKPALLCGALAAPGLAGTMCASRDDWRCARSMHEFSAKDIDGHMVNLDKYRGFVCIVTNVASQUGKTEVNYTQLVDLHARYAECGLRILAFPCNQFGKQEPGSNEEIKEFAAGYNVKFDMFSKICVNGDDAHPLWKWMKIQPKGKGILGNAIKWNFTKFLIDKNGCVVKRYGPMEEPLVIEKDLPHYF
# UniProt Q9UQL6: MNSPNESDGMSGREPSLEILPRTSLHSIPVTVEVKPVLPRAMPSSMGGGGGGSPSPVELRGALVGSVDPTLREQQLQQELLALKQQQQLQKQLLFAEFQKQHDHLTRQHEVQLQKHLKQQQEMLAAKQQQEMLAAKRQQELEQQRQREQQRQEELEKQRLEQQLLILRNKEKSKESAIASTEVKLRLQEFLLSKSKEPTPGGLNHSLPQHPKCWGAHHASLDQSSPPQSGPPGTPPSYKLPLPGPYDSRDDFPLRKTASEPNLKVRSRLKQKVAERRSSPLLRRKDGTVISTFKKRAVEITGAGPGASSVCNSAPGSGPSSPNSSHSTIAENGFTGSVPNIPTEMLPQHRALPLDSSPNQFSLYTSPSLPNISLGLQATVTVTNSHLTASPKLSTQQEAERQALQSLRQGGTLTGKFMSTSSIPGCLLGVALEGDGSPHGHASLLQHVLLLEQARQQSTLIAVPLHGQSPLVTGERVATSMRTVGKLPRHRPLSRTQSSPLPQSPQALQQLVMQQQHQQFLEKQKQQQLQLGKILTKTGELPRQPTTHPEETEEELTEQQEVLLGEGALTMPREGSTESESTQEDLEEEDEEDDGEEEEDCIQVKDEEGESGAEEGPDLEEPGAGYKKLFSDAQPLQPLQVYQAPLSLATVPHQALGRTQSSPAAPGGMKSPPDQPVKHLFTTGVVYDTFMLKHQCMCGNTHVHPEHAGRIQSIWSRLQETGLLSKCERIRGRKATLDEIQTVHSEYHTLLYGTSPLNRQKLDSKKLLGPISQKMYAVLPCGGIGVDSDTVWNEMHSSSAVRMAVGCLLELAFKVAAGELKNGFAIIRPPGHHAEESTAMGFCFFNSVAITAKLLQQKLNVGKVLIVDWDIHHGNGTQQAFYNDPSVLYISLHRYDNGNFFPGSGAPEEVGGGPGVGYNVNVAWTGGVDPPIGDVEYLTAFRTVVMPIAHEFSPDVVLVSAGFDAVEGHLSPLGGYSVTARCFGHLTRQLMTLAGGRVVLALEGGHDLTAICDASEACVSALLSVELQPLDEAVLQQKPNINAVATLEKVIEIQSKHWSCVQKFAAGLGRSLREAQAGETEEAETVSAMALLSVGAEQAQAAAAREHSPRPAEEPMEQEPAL
# UniProt P57764: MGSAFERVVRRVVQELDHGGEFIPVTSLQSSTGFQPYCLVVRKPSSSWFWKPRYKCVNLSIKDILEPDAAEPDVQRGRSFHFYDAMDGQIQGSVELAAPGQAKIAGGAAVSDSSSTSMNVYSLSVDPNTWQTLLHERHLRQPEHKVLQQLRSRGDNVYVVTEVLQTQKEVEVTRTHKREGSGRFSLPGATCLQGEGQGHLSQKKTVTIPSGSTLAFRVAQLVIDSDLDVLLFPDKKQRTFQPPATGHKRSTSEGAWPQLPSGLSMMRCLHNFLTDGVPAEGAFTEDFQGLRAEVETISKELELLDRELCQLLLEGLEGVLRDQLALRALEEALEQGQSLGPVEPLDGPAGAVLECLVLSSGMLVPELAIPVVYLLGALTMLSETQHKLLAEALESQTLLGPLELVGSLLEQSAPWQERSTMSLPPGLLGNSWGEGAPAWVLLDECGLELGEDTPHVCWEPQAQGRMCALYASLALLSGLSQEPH
# UniProt O60443: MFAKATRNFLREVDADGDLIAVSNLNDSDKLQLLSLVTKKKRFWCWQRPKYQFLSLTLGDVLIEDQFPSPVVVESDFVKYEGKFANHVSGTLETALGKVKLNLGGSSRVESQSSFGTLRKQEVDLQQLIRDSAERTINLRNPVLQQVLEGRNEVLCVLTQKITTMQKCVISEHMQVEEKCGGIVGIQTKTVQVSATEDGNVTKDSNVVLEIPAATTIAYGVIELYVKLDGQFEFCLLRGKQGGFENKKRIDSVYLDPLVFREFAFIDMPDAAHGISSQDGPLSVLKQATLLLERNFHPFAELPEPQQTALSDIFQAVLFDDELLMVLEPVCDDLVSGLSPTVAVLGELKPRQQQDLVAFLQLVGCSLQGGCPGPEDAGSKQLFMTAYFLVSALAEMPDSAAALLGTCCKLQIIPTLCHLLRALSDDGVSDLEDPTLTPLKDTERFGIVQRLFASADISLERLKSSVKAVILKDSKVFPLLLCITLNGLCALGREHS
# UniProt P15170, whole entry, looked up: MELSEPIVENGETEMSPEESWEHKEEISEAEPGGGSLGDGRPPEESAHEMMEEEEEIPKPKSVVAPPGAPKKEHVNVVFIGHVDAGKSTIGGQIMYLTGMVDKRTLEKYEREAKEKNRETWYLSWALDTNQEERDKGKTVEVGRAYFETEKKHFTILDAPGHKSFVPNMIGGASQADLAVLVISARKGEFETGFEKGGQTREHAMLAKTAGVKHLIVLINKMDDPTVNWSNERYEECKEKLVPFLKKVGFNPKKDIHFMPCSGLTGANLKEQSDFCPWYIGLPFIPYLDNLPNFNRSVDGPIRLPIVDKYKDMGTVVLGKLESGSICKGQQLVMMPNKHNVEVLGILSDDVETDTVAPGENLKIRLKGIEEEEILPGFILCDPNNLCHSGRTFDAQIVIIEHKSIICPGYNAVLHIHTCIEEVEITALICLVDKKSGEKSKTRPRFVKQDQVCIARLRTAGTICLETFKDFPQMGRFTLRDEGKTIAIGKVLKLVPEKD
# UniProt Q4ZG55: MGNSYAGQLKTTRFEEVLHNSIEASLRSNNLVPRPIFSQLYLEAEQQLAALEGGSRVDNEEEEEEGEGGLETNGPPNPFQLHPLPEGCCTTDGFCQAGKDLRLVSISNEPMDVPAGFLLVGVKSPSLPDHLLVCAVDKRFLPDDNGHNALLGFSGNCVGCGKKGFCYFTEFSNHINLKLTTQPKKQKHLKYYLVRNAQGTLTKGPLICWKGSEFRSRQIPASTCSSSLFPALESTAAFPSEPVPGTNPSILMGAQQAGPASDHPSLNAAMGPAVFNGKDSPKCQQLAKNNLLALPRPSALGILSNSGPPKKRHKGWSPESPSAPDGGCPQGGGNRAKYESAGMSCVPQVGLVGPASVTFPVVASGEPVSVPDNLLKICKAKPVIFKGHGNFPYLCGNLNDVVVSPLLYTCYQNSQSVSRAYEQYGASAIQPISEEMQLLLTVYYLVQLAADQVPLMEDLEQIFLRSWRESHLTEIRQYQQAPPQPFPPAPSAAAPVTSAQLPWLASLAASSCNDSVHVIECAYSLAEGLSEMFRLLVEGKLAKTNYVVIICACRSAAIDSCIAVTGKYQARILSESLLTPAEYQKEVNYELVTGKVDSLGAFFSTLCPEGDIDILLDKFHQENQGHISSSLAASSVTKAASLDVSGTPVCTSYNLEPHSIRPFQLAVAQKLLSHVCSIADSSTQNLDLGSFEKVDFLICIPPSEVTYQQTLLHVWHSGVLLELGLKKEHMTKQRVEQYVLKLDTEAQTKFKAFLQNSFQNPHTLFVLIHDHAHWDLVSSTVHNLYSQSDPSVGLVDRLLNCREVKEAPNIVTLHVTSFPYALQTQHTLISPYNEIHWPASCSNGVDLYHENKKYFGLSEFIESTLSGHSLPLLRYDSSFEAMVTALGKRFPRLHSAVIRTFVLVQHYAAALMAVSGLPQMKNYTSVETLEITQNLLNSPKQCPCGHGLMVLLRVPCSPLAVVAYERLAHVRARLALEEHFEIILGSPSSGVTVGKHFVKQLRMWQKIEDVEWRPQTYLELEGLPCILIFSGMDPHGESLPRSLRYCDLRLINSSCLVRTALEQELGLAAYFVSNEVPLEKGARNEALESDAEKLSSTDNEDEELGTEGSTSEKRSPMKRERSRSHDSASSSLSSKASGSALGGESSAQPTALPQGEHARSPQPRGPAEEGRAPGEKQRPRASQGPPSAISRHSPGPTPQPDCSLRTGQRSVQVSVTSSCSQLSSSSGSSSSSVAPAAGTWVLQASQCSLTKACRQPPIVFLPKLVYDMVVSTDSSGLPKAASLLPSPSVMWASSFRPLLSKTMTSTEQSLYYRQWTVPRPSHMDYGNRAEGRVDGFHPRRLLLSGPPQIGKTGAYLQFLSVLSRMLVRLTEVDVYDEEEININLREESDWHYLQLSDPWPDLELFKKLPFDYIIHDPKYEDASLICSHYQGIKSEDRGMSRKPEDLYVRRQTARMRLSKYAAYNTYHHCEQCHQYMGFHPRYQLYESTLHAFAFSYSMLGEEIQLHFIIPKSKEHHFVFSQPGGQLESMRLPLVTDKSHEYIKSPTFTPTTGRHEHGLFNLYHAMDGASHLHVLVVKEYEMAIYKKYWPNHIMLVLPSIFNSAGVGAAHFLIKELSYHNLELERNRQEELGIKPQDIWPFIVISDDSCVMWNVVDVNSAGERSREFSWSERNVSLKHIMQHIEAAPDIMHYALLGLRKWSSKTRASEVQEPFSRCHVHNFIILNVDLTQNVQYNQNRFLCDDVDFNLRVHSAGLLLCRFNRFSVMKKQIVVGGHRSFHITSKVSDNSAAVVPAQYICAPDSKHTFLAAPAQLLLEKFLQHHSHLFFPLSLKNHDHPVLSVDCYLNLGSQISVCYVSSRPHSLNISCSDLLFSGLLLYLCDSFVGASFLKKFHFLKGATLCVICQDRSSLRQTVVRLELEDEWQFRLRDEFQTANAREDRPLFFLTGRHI
# The list shows a part of the results.
# How the values were obtained:
# Assay in all cases: log2 fold change, soluble protein after heating vs DMSO (PISA); higher = thermal stabilisation; K562 lysate, 10 uM; active = over 0.2 and 3.5 SD of the protein, either way, in both replicates (recomputed)
# [1] = compound: CCCS(=O)(=O)Nc1ccc(F)c(C(=O)c2c[nH]c3ncc(-c4ccc(Cl)cc4)cc23)c1F [vemurafenib]
# Procedure, shortened: (§1)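 A 30 min treatment with 10 μM compound was applied to crude K562 extract at 1 mg/mL protein in PBS pH 7.4 with 1 mM MgCl2. Heating for 3 min spanned 48°C-58°C, after which aliquots were pooled, adjusted to 0.5% NP-40 at 4°C and spun at 21,000xg for 90 min. TMTpro 16plex LC-MS/MS of the supernatant, with channel sums equalised, gave values recorded as log-two fold change in thermal stability against solvent controls, from duplicates.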
# [2] = compound: CCCS(=O)(=O)Nc1ccc(F)c(C(=O)c2c[nH]c3ncc(Cl)cc23)c1F
# Procedure, shortened: as §1
# [3] = compound: CCN(CCCOc1ccc2c(Nc3cc(CC(=O)Nc4cccc(F)c4)[nH]n3)ncnc2c1)CCOP(=O)(O)O [barasertib]
# Procedure, shortened: as §1
# [4] = compound: CC[C@@H]1C(=O)N(C)c2cnc(Nc3ccc(C(=O)NC4CCN(C)CC4)cc3OC)nc2N1C1CCCC1
# Procedure, shortened: as §1
# [5] = compound: CC[C@@H]1C(=O)N(C)c2cnc(Nc3ccc(C(=O)N[C@H]4CC[C@H](N5CCN(CC6CC6)CC5)CC4)cc3OC)nc2N1C(C)C [volasertib]
# Procedure, shortened: as §1
# [6] = compound: CCn1c(C(=O)N(C2CC2)C2CC2)cc2c3c(ncn3C)c(Nc3cc(C)n(C)n3)nc21
# Procedure, shortened: as §1
# [7] = compound: CCn1cc(-c2ccnc3[nH]c(-c4cccc(CN(C)C)c4)cc23)c(-c2ccc(NC(=O)N(C)C)cc2)n1
# Procedure, shortened: as §1
# [8] = compound: CN1CCC(CNc2ccc3ncc(-c4cccc(OC(F)(F)F)c4)n3n2)CC1
# Procedure, shortened: as §1
# [9] = compound: CN1CCN(CCOc2cc(OC3CCOCC3)c3c(Nc4c(Cl)ccc5c4OCO5)ncnc3c2)CC1 [saracatinib]
# Procedure, shortened: as §1
# [10] = compound: CN1CCN(c2nc(C3=C(c4c[nH]c5ccccc45)C(=O)NC3=O)c3ccccc3n2)CC1 [sotrastaurin]
# Procedure, shortened: as §1
# [11] = compound: CN1CC[C@H](c2c(O)cc(O)c3c(=O)cc(-c4ccccc4Cl)oc23)[C@H](O)C1 [alvocidib]
# Procedure, shortened: as §1
# [12] = compound: CN1CCc2c(c3ccccc3n2Cc2ccc(C(=O)NO)cc2)C1 [Tubastatin A]
# Procedure, shortened: as §1
# [13] = compound: CNC(=O)C1=CC=CC=C1NC2=NC(=NC=C2Cl)NC3=C(C=C(C=C3)N4CCOCC4)OC
# Procedure, shortened: as §1
# [14] = compound: CNC(=O)c1ccc(Nc2ncc(C(F)(F)F)c(NCc3nccnc3N(C)S(C)(=O)=O)n2)cc1 [defactinib]
# Procedure, shortened: as §1
# [15] = compound: CNc1nc(-c2ccc3c(N)n[nH]c3c2)cc(N2C[C@@H](C(=O)NC3CCCCC3)CC[C@H]2C)n1
# Procedure, shortened: as §1
# [16] = compound: COC(=O)N[C@@H](C)CNc1nccc(-c2cn(C(C)C)nc2-c2cc(Cl)cc(NS(C)(=O)=O)c2F)n1 [encorafenib]
# Procedure, shortened: as §1
# [17] = compound: COC(=O)[C@H](CCSC)NC(=O)C1=C(C=C(C=C1)NC[C@H](CS)N)C2=CC=CC=C2
# Procedure, shortened: as §1
# [18] = compound: COc1cc(Nc2ncc3c(n2)-c2ccc(Cl)cc2C(c2c(F)cccc2OC)=NC3)ccc1C(=O)O [alisertib]
# Procedure, shortened: as §1
# [19] = compound: COc1cc2nc(-c3cc(F)ccc3O)nc(N[C@@H]3CNC[C@H]3C(C)(C)O)c2cc1OC
# Procedure, shortened: as §1
# [20] = compound: COc1cc2ncnc(Nc3ccc(F)c(Cl)c3)c2cc1OCCCN1CCOCC1 [gefitinib]
# Procedure, shortened: as §1
Target,log2 fold change [1],log2 fold change [2],log2 fold change [3],log2 fold change [4],log2 fold change [5],log2 fold change [6],log2 fold change [7],log2 fold change [8],log2 fold change [9],log2 fold change [10],log2 fold change [11],log2 fold change [12],log2 fold change [13],log2 fold change [14],log2 fold change [15],log2 fold change [16],log2 fold change [17],log2 fold change [18],log2 fold change [19],log2 fold change [20]
HACE1 (UniProt Q8IYU2),inactive: 0.066,inactive: 0.07,inactive: 0.081,inactive: 0.069,inactive: -0.058,inactive: 0.039,active: -0.657,inactive: 0.252,inactive: 0.025,inactive: -0.154,inactive: -0.177,inactive: 0.006,inactive: -0.042,inactive: -0.06,inactive: 0.278,inactive: -0.057,inactive: 0.18,inactive: 0.061,inactive: 0.045,inactive: -0.152
GSTZ1 (UniProt G3V4T6),inactive: -0.013,inactive: -0.024,inactive: 0.018,inactive: -0.101,inactive: -0.02,inactive: -0.029,inactive: -0.116,inactive: 0.087,inactive: -0.012,inactive: -0.018,inactive: -0.016,inactive: 0.018,inactive: 0.01,inactive: 0.061,inactive: 0.028,inactive: -0.045,active: 0.35,inactive: 0.023,inactive: 0.049,inactive: 0.002
GYG2 (UniProt O15488),inactive: -0.081,inactive: 0.013,inactive: 0.056,inactive: 0.01,inactive: -0.05,inactive: -0.011,,,inactive: 0.118,,,inactive: 0.027,inactive: 0.084,inactive: -0.081,inactive: -0.007,inactive: 0.047,inactive: -0.022,,inactive: 0.056,
HDGFL3 (UniProt Q9Y3E1),inactive: 0.108,inactive: -0.078,inactive: 0.026,inactive: 0.107,inactive: 0.008,inactive: -0.042,inactive: -0.101,inactive: 0.031,inactive: -0.023,inactive: 0.032,inactive: -0.041,inactive: 0.08,inactive: 0.013,inactive: 0.028,inactive: 0.005,inactive: -0.02,inactive: 0.04,inactive: 0.006,inactive: -0.011,inactive: -0.014
GTSF1 (UniProt Q8WW33),inactive: -0.018,inactive: 0.007,inactive: 0.045,inactive: 0.11,inactive: 0.05,inactive: 0.028,inactive: 0.037,inactive: -0.012,inactive: 0.011,inactive: -0.033,inactive: -0.014,inactive: 0.046,inactive: 0.029,inactive: -0.012,inactive: 0.042,inactive: -0.009,inactive: -0.048,inactive: -0.016,inactive: 0.013,inactive: -0.034
GTF2F2 (UniProt P13984),inactive: -0.029,inactive: -0.005,inactive: -0.009,inactive: 0.041,inactive: 0.009,inactive: -0.012,inactive: -0.083,inactive: 0.02,inactive: -0.003,inactive: 0.012,inactive: 0,inactive: 0.046,inactive: 0.007,inactive: -0.006,inactive: 0.059,inactive: 0.014,inactive: -0.039,inactive: 0.015,inactive: 0.011,inactive: -0.017
GPX4 (UniProt P36969),inactive: -0.003,inactive: 0.025,inactive: -0.002,inactive: -0.068,inactive: -0.038,inactive: 0.013,inactive: 0.027,inactive: -0.079,inactive: 0.02,inactive: 0.012,inactive: 0.031,inactive: -0.099,inactive: -0.006,inactive: 0.048,inactive: -0.051,inactive: 0.004,inactive: -0.023,inactive: 0.041,inactive: 0,inactive: 0.016
HDAC5 isoform 3 (UniProt Q9UQL6),inactive: -0.081,inactive: 0.036,inactive: -0.034,inactive: 0.059,inactive: 0.026,inactive: -0.046,inactive: -0.046,inactive: 0.06,inactive: -0.012,inactive: 0.035,inactive: -0.005,inactive: -0.043,inactive: 0.043,inactive: -0.093,inactive: 0.165,inactive: 0.053,inactive: 0.012,inactive: -0.042,inactive: -0.067,inactive: -0.023
GRB10 (UniProt Q13322),inactive: 0.001,inactive: 0.051,inactive: 0.054,inactive: -0.054,inactive: -0.103,inactive: 0.012,inactive: -0.023,inactive: 0.016,inactive: -0.082,inactive: 0.028,inactive: -0.061,inactive: -0.226,inactive: 0.015,inactive: 0.003,inactive: 0.02,inactive: 0.065,inactive: 0.01,inactive: 0,inactive: -0.02,inactive: -0.043
GRAMD4 (UniProt Q6IC98),inactive: 0.176,inactive: 0.15,,inactive: 0.145,inactive: -0.073,inactive: -0.178,,,inactive: -0.038,inactive: -0.027,,inactive: 0.04,inactive: 0.052,inactive: 0.037,inactive: 0.306,inactive: -0.143,inactive: 0.27,inactive: -0.336,inactive: 0.186,inactive: 0.095
GTPBP6 (UniProt O43824),inactive: -0.089,,,inactive: 0.32,,,inactive: -0.062,inactive: -0.096,inactive: -0.166,,inactive: 0.046,,,inactive: 0.163,inactive: 0.673,inactive: -0.076,inactive: 0.235,,,
GSDMD (UniProt P57764),inactive: 0.003,,,,,inactive: -0.114,,,,inactive: -0.02,,inactive: -0.158,,inactive: 0.086,,,,,,
GSDME (UniProt O60443),,inactive: 0.041,inactive: -0.121,inactive: 0.042,inactive: -0.058,,inactive: 0.015,inactive: 0.08,inactive: -0.047,inactive: 0.128,inactive: -0.058,,inactive: 0.07,,inactive: -0.023,inactive: 0.001,inactive: 0.044,,inactive: -0.022,
GSPT1 isoform 2 (UniProt P15170),inactive: 0.034,inactive: 0.029,,,inactive: 0.199,,,,,,,,,inactive: -0.149,,,,,inactive: 0.014,
GREB1 (UniProt Q4ZG55),inactive: 0.272,,inactive: 0.053,inactive: 0.58,,,inactive: -0.47,inactive: 0.056,,inactive: -0.06,inactive: -0.305,,inactive: -0.052,inactive: -0.089,,inactive: -0.09,inactive: 0.056,,,

# Single values from the entries so far:
# HACE1 (UniProt Q8IYU2) | log2 fold change [11]: inactive: -0.177
# HDAC5 isoform 3 (UniProt Q9UQL6) | log2 fold change [12]: inactive: -0.043
